# Measurements published in PubChem BioAssay AID720504 (National Center for Advancing Translational Sciences (NCATS), 2013).
# Chains of the proteins cited; added tags and fusions are not shown.
# UniProt P53350, whole entry, looked up: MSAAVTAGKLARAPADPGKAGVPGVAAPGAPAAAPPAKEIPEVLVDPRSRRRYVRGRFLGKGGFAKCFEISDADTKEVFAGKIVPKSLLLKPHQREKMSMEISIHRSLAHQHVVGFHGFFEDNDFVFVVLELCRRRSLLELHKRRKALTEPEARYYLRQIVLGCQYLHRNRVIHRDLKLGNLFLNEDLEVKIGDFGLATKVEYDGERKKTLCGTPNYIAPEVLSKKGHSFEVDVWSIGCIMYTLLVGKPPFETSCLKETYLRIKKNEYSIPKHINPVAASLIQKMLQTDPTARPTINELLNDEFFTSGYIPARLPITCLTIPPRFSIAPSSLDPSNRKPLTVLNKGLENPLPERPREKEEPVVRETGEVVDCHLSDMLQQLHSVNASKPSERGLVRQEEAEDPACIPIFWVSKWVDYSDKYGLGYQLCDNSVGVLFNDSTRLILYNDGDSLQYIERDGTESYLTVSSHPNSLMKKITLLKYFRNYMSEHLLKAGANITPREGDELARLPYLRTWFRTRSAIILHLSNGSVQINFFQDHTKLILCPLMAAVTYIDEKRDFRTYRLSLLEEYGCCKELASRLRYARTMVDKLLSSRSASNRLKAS
# The campaign covered roughly 360,000 compounds. About 10,000 (2.8%) were called active. Inconclusive results, whose numbers are uncertain, are shown with a selection of clear calls. Calls come from the whole dose curve; as a rule, active = well fitted inhibition curve with a large enough effect; inconclusive = small, poorly fitted or top-dose-only effect; inactive = flat fitted curve, though single readings scatter. Where the call is inconclusive, the potency comes from a doubtful curve fit.
# Molecular target: Serine/threonine-protein kinase PLK1 (Homo sapiens) (UniProt P53350)
# Test: qHTS for Inhibitors of PLK1-PDB (polo-like kinase 1 - polo-box domain): Primary Screen; note: nearly all actives have a fitted effect of over 65% in size; for max response, negative = inhibition: series mostly up to about 57 µM
# Details: Plk1 PBD binding of FITC phosphopeptide, fluorescence polarization
# % is set by controls: 0 for no effect and ±100 for the full control effect; potency is the fitted concentration of half-maximal effect.
Compound,Potency,"max response, negative = inhibition"
Cc1ccc(/C=C/C(=O)c2ccccc(=O)c2O)c(C)c1,"inconclusive: 29.9 µM [inhibitor, single point]",
Cc1cc(C)nc(/N=C2\NC(=O)CC(C(=O)O)N2c2ccc(C)c(C)c2)n1 (stereo not given),active: 23.8 µM,
C=C1C[C@@H]2C[C@@H]2CN(S(=O)(=O)c2ccc(C)cc2)[C@@H]1COCc1ccccc1,,inactive: 0.691%
C#CCN(C[C@H]1[C@H](OC(=O)NCc2ccccc2F)[C@H](OC(=O)NCc2ccccc2F)C[C@H]2C(=O)N(c3ccccc3)C(=O)[C@@H]12)S(=O)(=O)c1ccc(C)cc1,,inactive: -1.68%
O=C(NCCN1CCC(n2c(=O)[nH]c3ccccc32)CC1)c1ccc2ccccc2c1,,inactive: -4.09%
Cc1csc(NC(=O)CSc2nnc(Cc3cccn3C)n2CCc2ccccc2)n1,"inconclusive: 29.9 µM [inhibitor, single point]",
Cc1c(C(=O)O)c(=S)sn1CCOc1ccccc1,"inconclusive: 29.9 µM [inhibitor, single point]",
Cc1cc(SCC(=O)NC(=O)c2cccn2C)nc2ccccc12,"inconclusive: 11.9 µM [inhibitor, partial curve]",
COc1ccc(C(C)=O)cc1CSc1nnc(Nc2ccccc2)s1,,inactive: -13%
CCOC(=O)/C(=C/c1ccc(OC(F)F)cc1)C1=Nn2c(nnc2-c2ccc(Cl)cc2)SC1,"inconclusive: 23.8 µM [inhibitor, partial curve]",
COc1ccc(OC)c(NC(=O)CSc2nnnn2-c2ccc3c(c2)OCO3)c1,,inactive: -4.44%
CC1SC(=NC(=O)C(C)N2C(=O)c3ccccc3C2=O)NC1=O (stereo not given),"inconclusive: 23.8 µM [inhibitor, single point]",
CCc1cccc(CC)c1N1C(=O)C2=C(SCCCS2)C1=O,"inconclusive: 21.2 µM [inhibitor, partial curve]",
Cc1cc(C(=O)CCl)c(C)n1Cc1ccco1,"inconclusive: 29.9 µM [inhibitor, partial curve]",
C/C(=N\NC(=O)c1ccccc1O)c1cccs1,"inconclusive: 26.7 µM [inhibitor, single point]",
O=S(=O)(c1ccc(Br)cc1F)N1CCC(O)CC1,,inactive: -22.7%
Cc1cccc(NC(=O)CCS(=O)(=O)c2cc3c(cc2Cl)NC(=O)CO3)c1,active: 11.9 µM,
Cc1sc2nc(CSC(C)C(=O)Nc3ccc(Cl)cn3)[nH]c(=O)c2c1C (stereo not given),"inconclusive: 26.7 µM [inhibitor, partial curve]",
CN(C)c1cccc(C(=O)OCc2cc(=O)oc3cc(O)ccc23)c1,"inconclusive: 26.7 µM [inhibitor, single point]",
COc1ccc(C2NN=C(c3ccc(C)cc3)S2)cc1 (stereo not given),"inconclusive: 21.2 µM [inhibitor, partial curve]",
CCOC(=O)CSC1=C(C#N)C(c2sccc2C)C(C(C)=O)=C(C)N1 (stereo not given),active: 26.7 µM,
CCOc1ccc(OCC)c(NC(=O)C2CCCN(S(=O)(=O)c3cccs3)C2)c1 (stereo not given),,inactive: -16.4%
CCc1ccc(/C=C2/SC(=S)N(CC(=O)Nc3nc4ccccc4s3)C2=O)cc1,"inconclusive: 26.7 µM [inhibitor, partial curve]",
COc1ccc(/C=C2/SC(=S)N(NS(=O)(=O)c3ccccc3)C2=O)cc1,"inconclusive: 26.7 µM [inhibitor, single point]",

Compound,Potency,"max response, negative = inhibition"
CNc1ccc(Br)cc(C(=O)/C=C/c2cccc(Cl)c2Cl)c1=O,"inconclusive: 10.6 µM [inhibitor, partial curve]",
CC(C)SCC(=O)Nc1ncc2c(n1)-c1ccccc1CC2,active: 18.9 µM,
O=C(CNC(=O)c1cccs1)N=Nc1c(O)[nH]c2ccc([N+](=O)[O-])cc12,"inconclusive: 29.9 µM [inhibitor, single point]",
O=C(Nc1nnc(CCN2CCOCC2)s1)c1ccccc1,"inconclusive: 29.9 µM [inhibitor, partial curve]",
COc1ccccc1CNC(=O)[C@H](C)N1C(=O)N2CCc3c([nH]c4ccccc34)[C@@]2(C)C1=O,,inactive: -19%
Cn1c(Cn2c(=O)sc3ccccc32)nnc1SCC(=O)N1CCCc2ccccc21,"inconclusive: 67 µM [inhibitor, partial curve]",
Clc1ccc2[nH]c3c(N4CCC5(CC4)OCCO5)ncnc3c2c1,"inconclusive: 26.7 µM [inhibitor, single point]",
COc1ccc(N2CCN(C(=O)CSc3ccccc3N)CC2)cc1,active: 23.8 µM,
Cc1cc([N+](=O)[O-])ccc1N=Nc1c(N)[nH]n(-c2ccccc2)c1=O,"inconclusive: 33.6 µM [inhibitor, single point]",
COc1cccc(NC(=O)c2cc3ccccc3o/c2=N\O)c1,"inconclusive: 29.9 µM [inhibitor, partial curve]",
O=C(NC(=S)Nc1cccc2ncccc12)c1ccco1,,inactive: -4.09%
CCOC(=O)CSc1nc2cc3c(cc2cc1C#N)OCCO3,,inactive: -19.6%
CN(N)c1nc2ccccc2nc1C(F)(F)F,active: 21.2 µM,
COc1cccc(C2C(C(N)=O)=C(C)Nc3nc(-c4cccc(Cl)c4)nn32)c1 (stereo not given),,inconclusive: -34.7% [inhibitor]
COc1cc(/C=N/NC(=O)Cn2ccc(C(F)(F)F)n2)cc(OC)c1OC,"inconclusive: 29.9 µM [inhibitor, single point]",
O=C(CCC1CCCC1)N1CCN(C(=O)c2ccco2)CC1,active: 23.8 µM,
N/C(=N\OC(=O)c1ccc(Cl)cc1Cl)c1ccc(Cl)cc1,,inactive: 0.666%
CCOC(=O)c1c(C)[nH]c(=S)c(C#N)c1-c1ccccc1,"inconclusive: 29.9 µM [inhibitor, single point]",
COc1ccc(Cn2ccnc2SCC(=O)Nc2ccccc2F)cc1,,inactive: 0.962%
O=C(Sc1ccc(Cl)cc1)c1cccc(Cn2cc(C(F)(F)F)ccc2=O)c1,"inconclusive: 16.8 µM [inhibitor, partial curve]",
Cc1c(Cl)c([N+](=O)[O-])nn1CC(=O)NCC(C)C,,inactive: -5.17%
CN(C)C(=O)c1cccc(-c2cnc3c(NC=O)cc(-c4ccc(F)cc4)cn23)c1,,inactive: -19.5%
CCOC(=O)c1c(NC(=O)c2cccs2)sc(C(=O)N(C)C)c1C,active: 23.8 µM,
CCCCCNC(=O)C(c1cccc2ccccc12)n1c(=O)c(-c2ccco2)nc2ccccc21 (stereo not given),"inconclusive: 29.9 µM [inhibitor, partial curve]",

Compound,Potency,"max response, negative = inhibition"
COc1cc2c(cc1OC)C(=O)C(Br)CC2 (stereo not given),active: 0.947 µM,
CCC(=S)/C=C1\Sc2ccccc2N1CCCS(=O)(=O)O,"inconclusive: 2.99 µM [inhibitor, single point]",
COc1cccc(/C=N/n2c(C)nc3ccccc3c2=O)c1O,,inactive: 4.62%
N=c1c2c(n(Cc3ccc(Br)cc3)c3c1CCC3)CCCC2,"inconclusive: 29.9 µM [inhibitor, partial curve]",
O=C(N/N=C/c1ccccn1)c1cc([N+](=O)[O-])cc([N+](=O)[O-])c1,,inactive: -5.06%
Cc1ccc(C(=O)Nc2nnc(-c3ccco3)o2)cc1,,inactive: -10.3%
CCOC(=O)c1cnc(Nc2nc3ccccc3o2)nc1CSc1ncccn1,"inconclusive: 29.9 µM [inhibitor, partial curve]",
CCC(CO)Nc1ncnc2c1cnn2-c1ccc(OC)cc1 (stereo not given),"inconclusive: 21.2 µM [inhibitor, single point]",
Cc1ccc(NC(=O)C2CCN(S(=O)(=O)c3ccc4c(c3)CCCC(=O)N4)CC2)c(Br)c1,"inconclusive: 26.7 µM [inhibitor, single point]",
Cc1ccn2c(c1)nc(=O)c1cc(S(=O)(=O)N3CCOCC3)ccc12,"inconclusive: 18.9 µM [inhibitor, partial curve]",
COc1cc(C(=O)Nc2oc(-c3ccccc3)c(-c3ccccc3)c2C#N)cc(OC)c1OC,"inconclusive: 18.9 µM [inhibitor, partial curve]",
C/C(Cl)=C/Cn1c(SC(C)C)nc2c1c(=O)[nH]c(=O)n2C,"inconclusive: 37.7 µM [inhibitor, single point]",
N#Cc1c(N)n(-c2ccc(C(=O)O)cc2)c2nc3ccccc3nc12,,inactive: 0.195%
Cc1ccc(N(C(=O)c2ccncc2)C2C=CS(=O)(=O)C2)cc1 (stereo not given),"inconclusive: 29.9 µM [inhibitor, partial curve]",
Cc1ccccc1N=C1NC(=O)CC(c2ccccc2)S1 (stereo not given),"inconclusive: 33.6 µM [inhibitor, single point]",
O=C(NC(=S)Nc1ccccc1N1CCCC1)c1ccc(F)cc1,"inconclusive: 29.9 µM [inhibitor, partial curve]",
Cn1c(OCc2ccc3c(c2)OCO3)nc2c1c(=O)n(Cc1cccc(Cl)c1)c(=O)n2C,"inconclusive: 21.2 µM [inhibitor, single point]",
Nc1nc2cc(S(=O)(=O)N3CCOCC3)ccc2o1,active: 5.32 µM,
CCCCCNC(=O)c1ccc2c(=O)[nH]c3c(C(=O)NCC4CCCO4)sc(=S)n3c2c1 (stereo not given),active: 26.7 µM,
CC1CCN(C(=O)c2ccc(S(=O)(=O)Cc3cc(F)ccc3F)c([N+](=O)[O-])c2)CC1,active: 15 µM,
CCOc1ccc(Nc2nc(Cc3nnc(SCC(=O)NCC4CCCO4)n3C)cs2)cc1 (stereo not given),"inconclusive: 26.7 µM [inhibitor, single point]",
Cc1nc2sc(C(c3ccc(F)cc3)N3CCN(C(=O)c4ccco4)CC3)c(O)n2n1 (stereo not given),,inactive: -2.11%
